This note sets out measurements from paper PMC7672075.

Results are given in words; binding and its absence hold for the method and conditions named. For some assays here: Binding can be weak; no strength is given. For some assays here: Binding seen in cells or lysates may run through a third protein. For some assays here: Where a sequence is shown, tags or fusion partners need not be part of it.

One experiment has as its target Myc-hTRF2 (human). Put plainly: co-IP; 293T cells co-transfected with FLAG-MCPH1 constructs and Myc-hTRF2 or Myc-hTRF2^F120A; lysed in BC300 buffer (300 mM KCl, 0.5% NP-40); Myc antibody-conjugated agarose beads; MCPH1^ΔBRCT cells and a WT control treated with 12.5 μM MG132.
Another experiment concerns the target Myc-hTRF2^F120A (human). Described as above.
The target of experiment [1] is TRF2^TRFH (TRF Homology domain of human TRF2, residues 42–245) (human). Nature of the experiment: condition: 1.0 mM peptide in the syringe, 0.1 mM TRF2^TRFH in the cell; ITC; MCPH1^TBM peptides at 1.0 mM in the syringe titrated into TRF2^TRFH at 0.1 mM in the sample cell; 20 °C; 25 mM Tris-HCl pH 8.0, 150 mM NaCl; both purified.
Experiment [2] shares this target. Put plainly: crystal structure; TRF2^TRFH and MCPH1^TBM mixed at a molar ratio of 1:2; 100 mM CHES-NaOH pH 9.5, 30% PEG400, 293K; 2.15 Å, molecular replacement; both purified.

B1: FLAG-MCPH1^S333A (protein, UniProt Q8NEM0 1-835)
chain: MAAPILKDVVAYVEVWSSNGTENYSKTFTTQLVDMGAKVSKTFNKQVTHVIFKDGYQSTWDKAQKRGVKLVSVLWVEKCRTAGAHIDESLFPAANMNEHLSSLIKKKRKCMQPKDFNFKTPENDKRFQKKFEKMAKELQRQKTNLDDDVPILLFESNGSLIYTPTIEINSRHHSAMEKRLQEMKEKRENLSPTSSQMIQQSHDNPSNSLCEAPLNISRDTLCSDEYFAGGLHSSFDDLCGNSGCGNQERKLEGSINDIKSDVCISSLVLKANNIHSSPSFTHLDKSSPQKFLSNLSKEEINLQRNIAGKVVTPDQKQAAGMSQETFEEKYRLAPTLSSTKGHLLIHSRPRSSSVKRKRVSHGSHSPPKEKCKRKRSTRRSIMPRLQLCRSEDRLQHVAGPALEALSCGESSYDDYFSPDNLKERYSENLPPESQLPSSPAQLSCRSLSKKERTSIFEMSDFSCVGKKTRTVDITNFTAKTISSPRKTGNGEGRATSSCVTSAPEEALRCCRQAGKEDACPEGNGFSYTIEDPALPKGHDDDLTPLEGSLEEMKEAVGLKSTQNKGTTSKISNSSEGEAQSEHEPCFIVDCNMETSTEEKENLPGGYSGSVKNRPTRHDVLDDSCDGFKDLIKPHEELKKSGRGKKPTRTLVMTSMPSEKQNVVIQVVDKLKGFSIAPDVCETTTHVLSGKPLRTLNVLLGIARGCWVLSYDWVLWSLELGHWISEEPFELSHHFPAAPLCRSECHLSAGPYRGTLFADQPAMFVSPASSPPVAKLCELVHLCGGRVSQVPRQASIVIGPYSGKKKATVKYLSEKWVLDSITQHKVCAPENYLLSQ
Regarding B1, the binding entry with Myc-hTRF2 (human) is reported as “binds”.

B2: FLAG-tagged WT MCPH1 (human) (protein, UniProt Q8NEM0 1-835)
chain: MAAPILKDVVAYVEVWSSNGTENYSKTFTTQLVDMGAKVSKTFNKQVTHVIFKDGYQSTWDKAQKRGVKLVSVLWVEKCRTAGAHIDESLFPAANMNEHLSSLIKKKRKCMQPKDFNFKTPENDKRFQKKFEKMAKELQRQKTNLDDDVPILLFESNGSLIYTPTIEINSRHHSAMEKRLQEMKEKRENLSPTSSQMIQQSHDNPSNSLCEAPLNISRDTLCSDEYFAGGLHSSFDDLCGNSGCGNQERKLEGSINDIKSDVCISSLVLKANNIHSSPSFTHLDKSSPQKFLSNLSKEEINLQRNIAGKVVTPDQKQAAGMSQETFEEKYRLSPTLSSTKGHLLIHSRPRSSSVKRKRVSHGSHSPPKEKCKRKRSTRRSIMPRLQLCRSEDRLQHVAGPALEALSCGESSYDDYFSPDNLKERYSENLPPESQLPSSPAQLSCRSLSKKERTSIFEMSDFSCVGKKTRTVDITNFTAKTISSPRKTGNGEGRATSSCVTSAPEEALRCCRQAGKEDACPEGNGFSYTIEDPALPKGHDDDLTPLEGSLEEMKEAVGLKSTQNKGTTSKISNSSEGEAQSEHEPCFIVDCNMETSTEEKENLPGGYSGSVKNRPTRHDVLDDSCDGFKDLIKPHEELKKSGRGKKPTRTLVMTSMPSEKQNVVIQVVDKLKGFSIAPDVCETTTHVLSGKPLRTLNVLLGIARGCWVLSYDWVLWSLELGHWISEEPFELSHHFPAAPLCRSECHLSAGPYRGTLFADQPAMFVSPASSPPVAKLCELVHLCGGRVSQVPRQASIVIGPYSGKKKATVKYLSEKWVLDSITQHKVCAPENYLLSQ
Regarding B2, the binding entry with Myc-hTRF2^F120A (human) is reported as “no binding”; with Myc-hTRF2 (human), “binds”.

B3: FLAG-MCPH1^(Y330A, L332A) (protein, UniProt Q8NEM0 1-835)
chain: MAAPILKDVVAYVEVWSSNGTENYSKTFTTQLVDMGAKVSKTFNKQVTHVIFKDGYQSTWDKAQKRGVKLVSVLWVEKCRTAGAHIDESLFPAANMNEHLSSLIKKKRKCMQPKDFNFKTPENDKRFQKKFEKMAKELQRQKTNLDDDVPILLFESNGSLIYTPTIEINSRHHSAMEKRLQEMKEKRENLSPTSSQMIQQSHDNPSNSLCEAPLNISRDTLCSDEYFAGGLHSSFDDLCGNSGCGNQERKLEGSINDIKSDVCISSLVLKANNIHSSPSFTHLDKSSPQKFLSNLSKEEINLQRNIAGKVVTPDQKQAAGMSQETFEEKARASPTLSSTKGHLLIHSRPRSSSVKRKRVSHGSHSPPKEKCKRKRSTRRSIMPRLQLCRSEDRLQHVAGPALEALSCGESSYDDYFSPDNLKERYSENLPPESQLPSSPAQLSCRSLSKKERTSIFEMSDFSCVGKKTRTVDITNFTAKTISSPRKTGNGEGRATSSCVTSAPEEALRCCRQAGKEDACPEGNGFSYTIEDPALPKGHDDDLTPLEGSLEEMKEAVGLKSTQNKGTTSKISNSSEGEAQSEHEPCFIVDCNMETSTEEKENLPGGYSGSVKNRPTRHDVLDDSCDGFKDLIKPHEELKKSGRGKKPTRTLVMTSMPSEKQNVVIQVVDKLKGFSIAPDVCETTTHVLSGKPLRTLNVLLGIARGCWVLSYDWVLWSLELGHWISEEPFELSHHFPAAPLCRSECHLSAGPYRGTLFADQPAMFVSPASSPPVAKLCELVHLCGGRVSQVPRQASIVIGPYSGKKKATVKYLSEKWVLDSITQHKVCAPENYLLSQ
In the case of B3, the binding entry in the experiment with Myc-hTRF2 (human) was “no binding”.

As for SQETFEEKARLSPTLSSTKGH (peptide, UniProt Q8NEM0 322-342) [MCPH1^TBM peptide Y330A, synthetic], the binding result in experiment [1] was “no binding”.

As for SQETFEEKERLSPTLSSTKGH (peptide, UniProt Q8NEM0 322-342) [MCPH1^TBM peptide Y330E, synthetic], the binding result in experiment [1] is on record as “no binding”.

SQETFEEKYRLSPTLSSTKGH (peptide, UniProt Q8NEM0 322-342) [MCPH1^TBM peptide (residues 322–342), recombinant]: the binding result in experiment [2] is listed as “binds”.

For SQETFEEKYRASPTLSSTKGH (peptide, UniProt Q8NEM0 322-342) [MCPH1^TBM peptide L332A, synthetic], the binding entry in experiment [1] is “no binding”.
